In assay [1] the target is T1, UDP-N-acetylglucosamine-peptide N-acetylglucosaminyltransferase (mouse (endogenous in MEFs)) (UniProt Q8CGY8).
T1 sequence: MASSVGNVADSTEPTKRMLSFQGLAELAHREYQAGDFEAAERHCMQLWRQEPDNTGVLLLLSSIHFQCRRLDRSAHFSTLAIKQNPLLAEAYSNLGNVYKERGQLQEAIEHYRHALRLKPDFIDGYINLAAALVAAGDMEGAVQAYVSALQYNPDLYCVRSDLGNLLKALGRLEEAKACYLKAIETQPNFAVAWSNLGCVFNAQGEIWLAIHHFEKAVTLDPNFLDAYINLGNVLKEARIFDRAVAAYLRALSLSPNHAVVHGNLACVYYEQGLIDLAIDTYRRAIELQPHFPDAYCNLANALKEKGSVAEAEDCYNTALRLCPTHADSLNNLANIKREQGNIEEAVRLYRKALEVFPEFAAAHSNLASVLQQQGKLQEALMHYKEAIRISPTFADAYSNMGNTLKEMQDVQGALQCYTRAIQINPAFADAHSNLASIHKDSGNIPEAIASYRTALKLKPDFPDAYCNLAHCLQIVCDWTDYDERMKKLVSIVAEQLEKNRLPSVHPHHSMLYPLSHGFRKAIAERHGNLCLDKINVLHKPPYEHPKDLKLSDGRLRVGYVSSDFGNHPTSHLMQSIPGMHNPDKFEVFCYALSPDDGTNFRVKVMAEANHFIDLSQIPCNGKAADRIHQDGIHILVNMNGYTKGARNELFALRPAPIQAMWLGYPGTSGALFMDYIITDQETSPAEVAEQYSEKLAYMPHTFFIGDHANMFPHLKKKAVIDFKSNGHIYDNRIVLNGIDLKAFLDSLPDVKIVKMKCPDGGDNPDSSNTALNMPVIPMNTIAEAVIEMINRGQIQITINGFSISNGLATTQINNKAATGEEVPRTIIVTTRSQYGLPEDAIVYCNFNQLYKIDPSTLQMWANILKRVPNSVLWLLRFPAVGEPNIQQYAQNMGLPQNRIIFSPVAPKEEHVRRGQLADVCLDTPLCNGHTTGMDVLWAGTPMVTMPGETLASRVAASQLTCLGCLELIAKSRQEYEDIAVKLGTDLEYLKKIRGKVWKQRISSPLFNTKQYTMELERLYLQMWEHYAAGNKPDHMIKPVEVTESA
Nature of the assay: co-IP; endogenous OGT immunoprecipitated (antibody AL24) from lysates of untreated, H2O2-treated (2.5 mM; 60 and 90 min, or 0 to 150 min) and OGT-null MEFs; Western blot for the partners.

Protein sequences, listed by entry. Tags and fused reporters are not part of them.
UniProt Q61191: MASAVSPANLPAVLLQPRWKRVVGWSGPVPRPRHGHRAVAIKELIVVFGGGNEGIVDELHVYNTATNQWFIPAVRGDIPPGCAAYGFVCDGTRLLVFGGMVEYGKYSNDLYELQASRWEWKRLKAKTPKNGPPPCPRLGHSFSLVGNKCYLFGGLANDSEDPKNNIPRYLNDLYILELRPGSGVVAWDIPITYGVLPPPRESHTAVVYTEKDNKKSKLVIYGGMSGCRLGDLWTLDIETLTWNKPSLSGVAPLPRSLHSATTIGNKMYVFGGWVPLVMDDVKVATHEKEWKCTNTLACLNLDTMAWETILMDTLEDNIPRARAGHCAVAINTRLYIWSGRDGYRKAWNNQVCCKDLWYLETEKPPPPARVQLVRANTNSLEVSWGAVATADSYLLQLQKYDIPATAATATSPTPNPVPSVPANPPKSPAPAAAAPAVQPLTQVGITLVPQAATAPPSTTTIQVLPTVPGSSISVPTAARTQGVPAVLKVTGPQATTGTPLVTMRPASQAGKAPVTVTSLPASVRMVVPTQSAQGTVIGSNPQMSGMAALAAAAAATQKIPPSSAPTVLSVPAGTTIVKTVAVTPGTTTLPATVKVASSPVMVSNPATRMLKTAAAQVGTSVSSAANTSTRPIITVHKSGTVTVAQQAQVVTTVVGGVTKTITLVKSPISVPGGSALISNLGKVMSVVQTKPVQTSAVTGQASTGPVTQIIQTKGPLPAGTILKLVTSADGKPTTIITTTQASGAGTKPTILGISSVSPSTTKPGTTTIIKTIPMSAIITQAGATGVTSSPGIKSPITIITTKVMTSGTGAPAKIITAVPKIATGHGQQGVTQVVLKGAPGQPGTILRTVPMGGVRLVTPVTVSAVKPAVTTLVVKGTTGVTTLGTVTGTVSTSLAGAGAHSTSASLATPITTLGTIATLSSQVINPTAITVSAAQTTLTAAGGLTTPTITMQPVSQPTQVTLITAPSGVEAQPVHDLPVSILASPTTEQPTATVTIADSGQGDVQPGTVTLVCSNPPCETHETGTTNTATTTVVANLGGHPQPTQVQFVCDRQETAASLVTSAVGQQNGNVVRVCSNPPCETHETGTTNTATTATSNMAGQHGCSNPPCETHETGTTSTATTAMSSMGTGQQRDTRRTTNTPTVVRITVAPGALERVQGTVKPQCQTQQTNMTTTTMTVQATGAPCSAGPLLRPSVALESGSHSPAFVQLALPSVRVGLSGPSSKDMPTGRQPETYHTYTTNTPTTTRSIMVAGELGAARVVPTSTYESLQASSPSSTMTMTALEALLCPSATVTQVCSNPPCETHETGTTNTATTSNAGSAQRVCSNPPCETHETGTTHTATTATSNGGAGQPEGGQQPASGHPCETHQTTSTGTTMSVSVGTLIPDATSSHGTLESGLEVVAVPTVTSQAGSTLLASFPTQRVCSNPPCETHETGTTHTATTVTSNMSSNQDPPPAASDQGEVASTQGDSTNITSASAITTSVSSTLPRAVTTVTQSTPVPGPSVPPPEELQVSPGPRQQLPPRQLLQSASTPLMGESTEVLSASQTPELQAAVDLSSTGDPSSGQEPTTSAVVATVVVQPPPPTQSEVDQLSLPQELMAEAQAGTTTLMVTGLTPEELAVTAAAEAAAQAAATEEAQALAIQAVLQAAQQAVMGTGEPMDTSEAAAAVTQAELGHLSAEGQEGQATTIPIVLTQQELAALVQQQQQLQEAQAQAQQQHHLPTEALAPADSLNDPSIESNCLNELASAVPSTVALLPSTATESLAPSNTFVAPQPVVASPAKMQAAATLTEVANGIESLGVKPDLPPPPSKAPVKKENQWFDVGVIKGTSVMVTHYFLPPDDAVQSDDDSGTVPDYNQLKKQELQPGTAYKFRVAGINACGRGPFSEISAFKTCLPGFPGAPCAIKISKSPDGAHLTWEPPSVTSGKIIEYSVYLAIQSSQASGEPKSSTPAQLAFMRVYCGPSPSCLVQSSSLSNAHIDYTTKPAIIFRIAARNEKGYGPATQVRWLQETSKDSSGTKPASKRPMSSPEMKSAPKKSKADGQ
UniProt P58871: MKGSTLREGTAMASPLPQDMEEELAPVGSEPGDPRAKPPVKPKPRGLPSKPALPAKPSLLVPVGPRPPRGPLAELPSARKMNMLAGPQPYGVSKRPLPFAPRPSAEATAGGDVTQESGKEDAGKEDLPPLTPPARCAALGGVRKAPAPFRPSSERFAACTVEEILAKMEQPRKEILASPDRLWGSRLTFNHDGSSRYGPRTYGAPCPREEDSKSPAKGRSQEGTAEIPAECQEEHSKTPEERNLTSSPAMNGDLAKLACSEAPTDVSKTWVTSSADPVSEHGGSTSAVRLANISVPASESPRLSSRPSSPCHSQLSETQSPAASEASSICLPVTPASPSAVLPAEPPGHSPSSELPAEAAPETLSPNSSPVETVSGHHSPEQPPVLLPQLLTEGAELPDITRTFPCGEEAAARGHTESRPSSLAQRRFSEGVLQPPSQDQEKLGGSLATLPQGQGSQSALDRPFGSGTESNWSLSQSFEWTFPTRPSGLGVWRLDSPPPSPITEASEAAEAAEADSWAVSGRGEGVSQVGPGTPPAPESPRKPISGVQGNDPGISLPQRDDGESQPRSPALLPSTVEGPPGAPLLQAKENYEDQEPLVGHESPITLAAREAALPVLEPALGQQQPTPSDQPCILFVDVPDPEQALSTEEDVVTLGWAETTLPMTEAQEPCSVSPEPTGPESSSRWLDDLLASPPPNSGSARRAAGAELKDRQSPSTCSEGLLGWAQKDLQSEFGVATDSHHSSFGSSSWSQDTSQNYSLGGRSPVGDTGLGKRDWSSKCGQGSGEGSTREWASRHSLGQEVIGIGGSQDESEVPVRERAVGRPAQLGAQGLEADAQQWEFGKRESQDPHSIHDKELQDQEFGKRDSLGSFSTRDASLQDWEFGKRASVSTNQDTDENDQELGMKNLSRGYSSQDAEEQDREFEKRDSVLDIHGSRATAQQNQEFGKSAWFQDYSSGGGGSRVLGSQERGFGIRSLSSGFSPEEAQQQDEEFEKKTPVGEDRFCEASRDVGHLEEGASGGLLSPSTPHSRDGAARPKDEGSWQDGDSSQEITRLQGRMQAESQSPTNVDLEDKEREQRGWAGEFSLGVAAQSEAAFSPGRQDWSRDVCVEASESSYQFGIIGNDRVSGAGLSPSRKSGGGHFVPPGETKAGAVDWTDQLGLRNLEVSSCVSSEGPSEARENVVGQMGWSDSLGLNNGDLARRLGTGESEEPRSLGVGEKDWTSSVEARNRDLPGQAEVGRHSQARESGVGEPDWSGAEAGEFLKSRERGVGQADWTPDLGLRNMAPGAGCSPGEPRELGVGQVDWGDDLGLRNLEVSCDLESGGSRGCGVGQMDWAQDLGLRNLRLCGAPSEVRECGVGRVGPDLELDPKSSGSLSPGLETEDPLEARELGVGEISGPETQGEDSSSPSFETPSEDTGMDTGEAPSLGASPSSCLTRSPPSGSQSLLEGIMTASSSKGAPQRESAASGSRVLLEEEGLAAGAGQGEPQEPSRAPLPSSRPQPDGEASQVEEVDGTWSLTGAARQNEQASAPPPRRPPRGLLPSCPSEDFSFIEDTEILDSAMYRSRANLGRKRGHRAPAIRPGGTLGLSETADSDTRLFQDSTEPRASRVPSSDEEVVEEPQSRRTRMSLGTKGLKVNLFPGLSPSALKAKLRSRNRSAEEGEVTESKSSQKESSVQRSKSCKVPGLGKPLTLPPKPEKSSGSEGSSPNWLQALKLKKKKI
UniProt Q9Z1R2: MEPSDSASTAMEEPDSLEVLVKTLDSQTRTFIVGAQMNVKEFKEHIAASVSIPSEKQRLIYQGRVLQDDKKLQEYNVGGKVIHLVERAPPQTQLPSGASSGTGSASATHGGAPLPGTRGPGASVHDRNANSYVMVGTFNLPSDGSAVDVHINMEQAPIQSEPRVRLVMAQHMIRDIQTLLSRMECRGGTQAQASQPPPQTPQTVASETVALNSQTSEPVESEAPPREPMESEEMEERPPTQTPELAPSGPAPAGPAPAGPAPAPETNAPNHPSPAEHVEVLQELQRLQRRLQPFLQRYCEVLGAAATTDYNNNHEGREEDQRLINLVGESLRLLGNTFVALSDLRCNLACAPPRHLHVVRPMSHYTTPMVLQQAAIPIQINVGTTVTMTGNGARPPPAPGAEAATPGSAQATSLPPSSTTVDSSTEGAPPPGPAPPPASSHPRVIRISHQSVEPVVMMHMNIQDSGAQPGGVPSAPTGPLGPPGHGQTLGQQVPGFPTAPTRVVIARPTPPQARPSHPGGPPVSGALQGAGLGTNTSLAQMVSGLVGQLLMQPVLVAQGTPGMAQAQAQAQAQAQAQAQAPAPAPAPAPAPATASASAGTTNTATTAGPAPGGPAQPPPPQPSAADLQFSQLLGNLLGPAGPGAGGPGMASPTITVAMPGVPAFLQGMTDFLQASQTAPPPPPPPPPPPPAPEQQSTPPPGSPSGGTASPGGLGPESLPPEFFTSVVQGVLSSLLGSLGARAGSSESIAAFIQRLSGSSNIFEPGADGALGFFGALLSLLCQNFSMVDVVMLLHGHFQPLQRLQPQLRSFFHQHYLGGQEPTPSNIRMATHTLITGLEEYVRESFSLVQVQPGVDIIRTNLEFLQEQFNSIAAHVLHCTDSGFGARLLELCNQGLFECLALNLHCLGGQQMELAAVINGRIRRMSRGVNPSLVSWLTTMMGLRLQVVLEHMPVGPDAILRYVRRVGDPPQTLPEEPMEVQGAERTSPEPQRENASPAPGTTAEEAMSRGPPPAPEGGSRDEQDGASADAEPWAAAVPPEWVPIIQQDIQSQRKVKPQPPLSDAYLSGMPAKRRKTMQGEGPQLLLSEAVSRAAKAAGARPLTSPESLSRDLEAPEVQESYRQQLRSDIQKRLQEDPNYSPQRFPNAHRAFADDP

In assay [2] the target is Host cell factor 1 precursor (mouse (endogenous in MEFs)) (UniProt Q61191). Briefly: co-IP; endogenous HCF1 immunoprecipitated (anti-HCF1 antibody) from lysates (300 ug) of MEFs treated with or without 2.5 mM H2O2 for 0 to 150 min; Western blot for OGT. In general terms: A western blot detects proteins with antibodies after separation by electrophoresis.

These are yes or no findings as the source states them, for the method shown. Binding seen in cells or lysates may run through a third protein. Some binding calls cover weakened binding; strength is not graded here. Sequences can lack the tags named with a protein.

On to “182-kDa tankyrase-1–binding protein (from UniProt P58871 1-1720)”, for which the binding result in assay [1] was “binds”.

For the molecule “Host cell factor 1 precursor (from UniProt Q61191 1-2045)”, the binding entry in assay [1] is recorded as “binds”.

Consider “Large proline-rich protein BAG6 isoform X8 (from UniProt Q9Z1R2 1-1154)”, for which, in assay [1], the binding result is on record as “binds”.

B1: UDP-N-acetylglucosamine-peptide N-acetylglucosaminyltransferase (enzyme, UniProt Q8CGY8-1 1-1046)
chain: T1 sequence
In the case of B1, the binding result in assay [2] is “binds”.

(Values after paper PMC8079276.)
